Here are results for two substances from paper PMC3762725.

Sequences of proteins named here, by UniProt entry; tags and fusion partners are left off. A change or cut given only in a name is not applied to a line headed by its entry.
UniProt Q9UHI6: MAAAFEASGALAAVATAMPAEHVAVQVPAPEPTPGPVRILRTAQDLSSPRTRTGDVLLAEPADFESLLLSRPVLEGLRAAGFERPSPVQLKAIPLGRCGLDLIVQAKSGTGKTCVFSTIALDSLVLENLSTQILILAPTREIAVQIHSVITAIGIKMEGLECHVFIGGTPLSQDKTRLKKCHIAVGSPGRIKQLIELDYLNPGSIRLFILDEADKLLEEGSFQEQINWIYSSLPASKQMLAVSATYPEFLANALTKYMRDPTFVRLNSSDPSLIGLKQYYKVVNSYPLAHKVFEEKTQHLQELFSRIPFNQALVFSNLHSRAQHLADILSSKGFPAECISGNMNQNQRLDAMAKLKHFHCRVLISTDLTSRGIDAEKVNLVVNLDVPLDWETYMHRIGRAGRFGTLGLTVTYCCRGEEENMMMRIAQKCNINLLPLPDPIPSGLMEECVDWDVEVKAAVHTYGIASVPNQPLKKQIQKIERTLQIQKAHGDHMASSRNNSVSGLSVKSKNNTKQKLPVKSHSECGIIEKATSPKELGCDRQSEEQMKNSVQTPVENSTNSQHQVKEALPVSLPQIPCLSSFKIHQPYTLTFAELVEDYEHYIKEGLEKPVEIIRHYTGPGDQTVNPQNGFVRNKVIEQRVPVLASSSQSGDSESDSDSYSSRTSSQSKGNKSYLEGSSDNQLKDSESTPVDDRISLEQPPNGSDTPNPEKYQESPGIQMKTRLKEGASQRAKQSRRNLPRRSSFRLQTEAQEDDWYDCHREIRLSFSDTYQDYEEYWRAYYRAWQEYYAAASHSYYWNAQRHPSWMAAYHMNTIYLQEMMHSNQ

Changes are numbered by the printed parent chain. No constants are given. Whether binding was seen depends on the method and setting. For some of these results: In cells and extracts the contact can be indirect. Some entries that bind do so weakly or less than the wild type. For some of these results: Tags and fused reporters may be left off the sequences shown.

Experiment [1] deals with T1, αB-crystallin-LexA fusion protein (wild-type αB-crystallin) (human) (UniProt P02511).
T1 sequence: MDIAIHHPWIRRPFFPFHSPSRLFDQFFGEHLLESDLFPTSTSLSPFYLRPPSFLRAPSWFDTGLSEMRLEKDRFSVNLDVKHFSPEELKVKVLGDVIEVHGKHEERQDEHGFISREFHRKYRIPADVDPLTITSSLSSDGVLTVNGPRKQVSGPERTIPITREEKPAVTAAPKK
Kind of experiment: two-hybrid; yeast two-hybrid screen; αB-crystallin-LexA fusion as bait, cDNA library from HeLa cells as preys; data not shown.

Experiment [2] addresses T2, non-phosphorylatable αB-crystallin (αB-STA) (human) (UniProt P02511).
T2 sequence: T1 sequence with S19A, S45A, S59A
Put plainly: co-IP; lysates of transfected HeLa cells (50 mM Tris-HCl pH 7.5, 100 mM NaCl, 0.5% Nonidet P-40, 4°C); precipitated with monoclonal antibody to αB-crystallin on protein G-agarose; blot for Gemin3.

For experiment [3], the target named is T3, pseudophosphorylated αB-crystallin (αB-STD) (human) (UniProt P02511).
T3 sequence: T1 sequence with S19D, S45D, S59D
The description is as above.

Experiment [4] deals with T4, wild-type αB-crystallin (human) (UniProt P02511).
T4 sequence: T1 sequence
The description is as above.

With “C-terminal 246 residues of Gemin3 (from UniProt Q9UHI6 579-824) (domain or fragment)”, the binding result in experiment [1] is listed as “binds”.

For Gemin3 (from UniProt Q9UHI6 1-824), the binding result in experiment [2], in experiment [3] and in experiment [4] was “binds” each time.
